Laboratory results: the supplement of paper PMC12067093, “Discovery and optimisation of a covalent ligand for TRIM25 and its application to targeted protein ubiquitination” (Chemical Science, 2025)
Some of the results follow.

Amino acid sequences for entries named in this document (tags omitted). A change or cut given only in a name is not applied to a line headed by its entry.
UniProt P30414: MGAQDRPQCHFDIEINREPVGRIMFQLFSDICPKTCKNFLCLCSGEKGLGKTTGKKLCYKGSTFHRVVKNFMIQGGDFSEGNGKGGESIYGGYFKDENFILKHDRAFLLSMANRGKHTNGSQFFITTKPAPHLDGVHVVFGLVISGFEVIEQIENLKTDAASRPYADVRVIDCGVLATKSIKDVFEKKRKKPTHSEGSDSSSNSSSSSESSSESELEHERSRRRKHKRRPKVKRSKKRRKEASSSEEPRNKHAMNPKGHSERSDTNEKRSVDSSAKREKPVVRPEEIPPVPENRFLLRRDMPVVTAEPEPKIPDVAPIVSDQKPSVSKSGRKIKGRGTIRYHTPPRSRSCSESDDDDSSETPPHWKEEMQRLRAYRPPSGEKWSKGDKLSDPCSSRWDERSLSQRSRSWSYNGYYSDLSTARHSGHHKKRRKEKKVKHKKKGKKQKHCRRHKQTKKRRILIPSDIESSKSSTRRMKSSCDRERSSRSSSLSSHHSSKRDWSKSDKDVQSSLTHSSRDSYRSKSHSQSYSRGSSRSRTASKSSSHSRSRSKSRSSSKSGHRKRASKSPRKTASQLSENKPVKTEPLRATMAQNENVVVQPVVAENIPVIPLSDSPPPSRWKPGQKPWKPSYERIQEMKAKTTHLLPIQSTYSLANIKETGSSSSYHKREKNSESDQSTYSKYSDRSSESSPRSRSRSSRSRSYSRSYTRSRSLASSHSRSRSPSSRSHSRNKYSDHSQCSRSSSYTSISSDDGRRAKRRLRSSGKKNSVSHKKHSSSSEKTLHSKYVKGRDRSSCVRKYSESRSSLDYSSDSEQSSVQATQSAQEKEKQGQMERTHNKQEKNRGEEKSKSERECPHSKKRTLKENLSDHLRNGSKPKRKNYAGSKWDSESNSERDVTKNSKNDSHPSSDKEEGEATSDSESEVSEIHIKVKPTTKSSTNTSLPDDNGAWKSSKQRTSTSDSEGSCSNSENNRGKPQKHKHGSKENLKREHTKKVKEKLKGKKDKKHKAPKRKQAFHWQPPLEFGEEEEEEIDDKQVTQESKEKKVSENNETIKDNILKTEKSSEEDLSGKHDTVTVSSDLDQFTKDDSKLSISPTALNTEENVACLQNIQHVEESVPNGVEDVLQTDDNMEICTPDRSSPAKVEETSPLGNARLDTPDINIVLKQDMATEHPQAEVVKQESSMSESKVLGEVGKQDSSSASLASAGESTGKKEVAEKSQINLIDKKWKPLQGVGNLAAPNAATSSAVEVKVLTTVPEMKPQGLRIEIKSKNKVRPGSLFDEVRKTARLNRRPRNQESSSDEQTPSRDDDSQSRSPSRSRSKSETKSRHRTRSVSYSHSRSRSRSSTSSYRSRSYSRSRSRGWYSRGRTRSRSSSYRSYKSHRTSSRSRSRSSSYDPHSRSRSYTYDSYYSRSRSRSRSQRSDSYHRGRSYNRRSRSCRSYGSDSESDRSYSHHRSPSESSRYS
UniProt P62166, whole entry, looked up: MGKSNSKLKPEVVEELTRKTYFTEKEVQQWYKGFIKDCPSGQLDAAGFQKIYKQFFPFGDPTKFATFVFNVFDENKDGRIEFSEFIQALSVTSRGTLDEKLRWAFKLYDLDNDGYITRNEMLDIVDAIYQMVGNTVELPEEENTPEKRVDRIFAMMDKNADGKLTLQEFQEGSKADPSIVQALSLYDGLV
UniProt Q8WX92, whole entry, looked up: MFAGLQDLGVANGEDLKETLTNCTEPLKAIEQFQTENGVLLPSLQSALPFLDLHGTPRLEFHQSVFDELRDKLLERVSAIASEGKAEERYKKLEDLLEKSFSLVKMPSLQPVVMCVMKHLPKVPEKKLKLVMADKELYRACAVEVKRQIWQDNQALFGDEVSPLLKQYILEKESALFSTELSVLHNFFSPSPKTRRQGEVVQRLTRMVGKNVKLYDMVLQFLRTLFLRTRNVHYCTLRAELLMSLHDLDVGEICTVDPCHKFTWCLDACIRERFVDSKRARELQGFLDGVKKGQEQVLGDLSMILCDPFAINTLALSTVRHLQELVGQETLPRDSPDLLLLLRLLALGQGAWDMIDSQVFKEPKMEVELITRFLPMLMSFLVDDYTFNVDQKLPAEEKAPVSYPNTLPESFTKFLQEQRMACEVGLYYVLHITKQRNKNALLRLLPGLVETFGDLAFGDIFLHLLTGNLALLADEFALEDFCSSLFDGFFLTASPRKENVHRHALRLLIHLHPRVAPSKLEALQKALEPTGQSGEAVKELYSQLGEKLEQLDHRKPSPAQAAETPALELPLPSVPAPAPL
UniProt Q9UHB4: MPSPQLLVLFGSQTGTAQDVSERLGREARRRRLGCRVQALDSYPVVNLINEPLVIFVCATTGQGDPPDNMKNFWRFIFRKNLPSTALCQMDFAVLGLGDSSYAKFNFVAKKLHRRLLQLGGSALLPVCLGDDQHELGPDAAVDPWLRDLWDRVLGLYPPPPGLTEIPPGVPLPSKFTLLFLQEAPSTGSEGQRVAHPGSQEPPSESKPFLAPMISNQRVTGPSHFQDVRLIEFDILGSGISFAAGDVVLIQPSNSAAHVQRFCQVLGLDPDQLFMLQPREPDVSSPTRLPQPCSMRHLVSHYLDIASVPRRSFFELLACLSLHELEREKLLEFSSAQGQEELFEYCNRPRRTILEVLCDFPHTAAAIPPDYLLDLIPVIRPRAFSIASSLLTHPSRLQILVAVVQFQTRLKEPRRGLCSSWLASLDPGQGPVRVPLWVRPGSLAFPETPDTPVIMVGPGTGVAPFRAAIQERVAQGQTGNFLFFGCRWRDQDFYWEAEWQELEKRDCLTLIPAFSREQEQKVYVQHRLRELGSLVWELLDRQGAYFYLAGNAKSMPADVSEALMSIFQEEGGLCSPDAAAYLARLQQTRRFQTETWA
UniProt Q00653: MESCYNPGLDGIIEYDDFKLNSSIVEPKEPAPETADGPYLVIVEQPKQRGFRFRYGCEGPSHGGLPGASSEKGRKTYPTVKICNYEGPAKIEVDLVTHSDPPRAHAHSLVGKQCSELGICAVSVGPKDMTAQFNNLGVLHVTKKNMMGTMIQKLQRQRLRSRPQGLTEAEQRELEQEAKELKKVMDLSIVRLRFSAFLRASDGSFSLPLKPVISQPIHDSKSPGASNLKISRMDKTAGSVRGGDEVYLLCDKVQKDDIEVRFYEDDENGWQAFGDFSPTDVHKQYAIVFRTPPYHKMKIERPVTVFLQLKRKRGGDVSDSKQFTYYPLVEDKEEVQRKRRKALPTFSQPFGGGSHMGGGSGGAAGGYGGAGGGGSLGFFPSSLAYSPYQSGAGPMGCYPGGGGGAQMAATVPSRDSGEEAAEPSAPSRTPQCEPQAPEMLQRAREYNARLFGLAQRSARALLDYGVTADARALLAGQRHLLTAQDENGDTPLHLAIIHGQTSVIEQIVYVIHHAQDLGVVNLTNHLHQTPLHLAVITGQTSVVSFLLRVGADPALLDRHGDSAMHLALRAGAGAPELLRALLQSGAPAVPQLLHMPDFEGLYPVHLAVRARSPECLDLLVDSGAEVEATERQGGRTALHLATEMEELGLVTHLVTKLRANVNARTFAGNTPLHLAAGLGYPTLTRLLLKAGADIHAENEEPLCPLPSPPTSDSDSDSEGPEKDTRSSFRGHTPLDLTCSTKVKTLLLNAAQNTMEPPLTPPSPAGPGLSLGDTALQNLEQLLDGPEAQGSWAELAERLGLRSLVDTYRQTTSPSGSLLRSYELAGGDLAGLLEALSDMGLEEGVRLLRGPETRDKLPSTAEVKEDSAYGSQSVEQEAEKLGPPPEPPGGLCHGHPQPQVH
UniProt Q6KC79: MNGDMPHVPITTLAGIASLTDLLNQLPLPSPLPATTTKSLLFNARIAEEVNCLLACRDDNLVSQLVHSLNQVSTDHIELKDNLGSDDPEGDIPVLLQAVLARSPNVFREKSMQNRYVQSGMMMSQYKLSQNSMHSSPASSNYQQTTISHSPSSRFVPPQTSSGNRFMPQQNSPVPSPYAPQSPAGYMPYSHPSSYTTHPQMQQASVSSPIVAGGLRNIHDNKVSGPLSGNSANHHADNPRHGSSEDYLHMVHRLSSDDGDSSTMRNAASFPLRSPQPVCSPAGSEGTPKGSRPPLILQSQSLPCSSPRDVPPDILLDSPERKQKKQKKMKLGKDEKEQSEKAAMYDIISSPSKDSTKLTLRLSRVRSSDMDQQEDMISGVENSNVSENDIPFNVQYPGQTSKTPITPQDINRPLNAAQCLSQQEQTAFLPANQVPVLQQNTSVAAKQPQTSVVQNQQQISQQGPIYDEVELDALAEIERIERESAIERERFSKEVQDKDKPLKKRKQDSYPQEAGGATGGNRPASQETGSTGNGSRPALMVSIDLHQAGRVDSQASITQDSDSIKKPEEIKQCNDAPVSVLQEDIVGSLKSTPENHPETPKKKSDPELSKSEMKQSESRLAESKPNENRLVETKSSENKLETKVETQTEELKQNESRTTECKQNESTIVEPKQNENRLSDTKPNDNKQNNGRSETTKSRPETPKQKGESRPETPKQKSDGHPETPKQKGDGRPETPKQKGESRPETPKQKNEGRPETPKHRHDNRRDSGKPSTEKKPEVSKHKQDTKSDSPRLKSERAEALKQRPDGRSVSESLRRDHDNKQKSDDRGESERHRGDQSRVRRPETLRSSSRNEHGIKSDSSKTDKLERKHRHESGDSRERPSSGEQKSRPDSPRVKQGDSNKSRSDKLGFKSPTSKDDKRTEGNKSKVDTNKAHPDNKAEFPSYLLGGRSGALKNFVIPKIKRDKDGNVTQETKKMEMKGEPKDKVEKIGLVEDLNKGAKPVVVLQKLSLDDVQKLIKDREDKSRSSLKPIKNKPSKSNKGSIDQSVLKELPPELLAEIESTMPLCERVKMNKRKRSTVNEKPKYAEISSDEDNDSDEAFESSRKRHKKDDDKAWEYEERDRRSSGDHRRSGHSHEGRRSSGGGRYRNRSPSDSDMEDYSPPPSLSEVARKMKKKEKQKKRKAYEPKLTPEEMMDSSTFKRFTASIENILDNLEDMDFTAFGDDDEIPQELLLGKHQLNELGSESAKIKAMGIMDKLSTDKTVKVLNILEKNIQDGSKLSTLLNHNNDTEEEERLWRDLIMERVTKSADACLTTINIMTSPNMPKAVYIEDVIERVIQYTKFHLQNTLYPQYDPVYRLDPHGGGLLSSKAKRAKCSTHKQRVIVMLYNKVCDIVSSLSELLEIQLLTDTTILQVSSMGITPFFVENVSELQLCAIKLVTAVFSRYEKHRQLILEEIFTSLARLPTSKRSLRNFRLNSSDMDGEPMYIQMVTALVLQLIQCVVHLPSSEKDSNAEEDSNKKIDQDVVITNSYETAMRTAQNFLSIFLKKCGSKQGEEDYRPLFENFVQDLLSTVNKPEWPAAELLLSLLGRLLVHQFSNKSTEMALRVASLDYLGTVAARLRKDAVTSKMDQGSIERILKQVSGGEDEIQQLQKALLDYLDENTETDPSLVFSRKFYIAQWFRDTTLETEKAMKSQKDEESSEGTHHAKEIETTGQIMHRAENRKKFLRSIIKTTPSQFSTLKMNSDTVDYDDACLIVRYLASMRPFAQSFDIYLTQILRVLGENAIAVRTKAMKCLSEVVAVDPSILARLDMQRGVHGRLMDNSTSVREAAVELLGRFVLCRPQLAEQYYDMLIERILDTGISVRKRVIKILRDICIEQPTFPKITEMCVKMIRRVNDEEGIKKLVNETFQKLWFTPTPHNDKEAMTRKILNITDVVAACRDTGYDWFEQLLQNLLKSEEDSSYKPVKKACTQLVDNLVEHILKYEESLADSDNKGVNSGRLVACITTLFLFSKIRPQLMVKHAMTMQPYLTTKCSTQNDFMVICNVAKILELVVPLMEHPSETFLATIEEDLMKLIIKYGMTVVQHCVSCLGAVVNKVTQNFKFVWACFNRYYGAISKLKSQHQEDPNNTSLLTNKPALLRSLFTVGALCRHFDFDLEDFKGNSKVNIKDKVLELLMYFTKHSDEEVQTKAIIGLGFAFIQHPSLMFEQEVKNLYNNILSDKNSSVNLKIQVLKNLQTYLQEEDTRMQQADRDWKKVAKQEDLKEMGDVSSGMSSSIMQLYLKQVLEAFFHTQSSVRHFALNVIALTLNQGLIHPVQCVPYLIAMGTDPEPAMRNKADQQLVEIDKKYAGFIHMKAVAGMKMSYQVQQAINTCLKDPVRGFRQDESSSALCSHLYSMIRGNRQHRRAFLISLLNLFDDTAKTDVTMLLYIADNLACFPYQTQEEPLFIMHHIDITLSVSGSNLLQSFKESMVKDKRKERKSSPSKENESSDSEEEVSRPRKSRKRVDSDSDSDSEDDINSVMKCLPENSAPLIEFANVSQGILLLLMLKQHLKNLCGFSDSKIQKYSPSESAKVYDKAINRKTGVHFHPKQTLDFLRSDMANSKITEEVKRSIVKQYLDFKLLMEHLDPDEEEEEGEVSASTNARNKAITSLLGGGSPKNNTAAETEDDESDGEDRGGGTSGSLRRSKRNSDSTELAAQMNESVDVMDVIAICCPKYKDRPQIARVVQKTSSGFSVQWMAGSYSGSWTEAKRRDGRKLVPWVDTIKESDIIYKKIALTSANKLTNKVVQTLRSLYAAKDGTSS

These targets were tested with Cc1cc(ccc1-c1ccccc1)C(=O)N1CCCN(CC1)C(=O)CCl [compound 10] (assay: probe-labelled cysteine peptide fold change vs DMSO (competition) (log2 fold change); higher = less target engagement (more negative = stronger competition)). Settings: 50 µM; THP-1; incubation time: 4 h.
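Note: competitive profiling in live THP-1 cells: cysteine peptides tagged with an iodoacetamide desthiobiotin (IA-DTB) probe, intensity after compound treatment relative to DMSO-treated cells.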

| Target | probe-labelled cysteine peptide fold change |
| --- | --- |
| NKTR_P30414_32_IMFQLFSDICPK (UniProt P30414) | -0.0342 |
| NCS1_P62166_38_DCPSGQLDAAGFQK (UniProt P62166) | 0.347 |
| NELFB_Q8WX92_254+259_AELLMSLHDLDVGEICTVDPCHK (UniProt Q8WX92) | -0.164 |
| NDOR1_Q9UHB4_486_VAQGQTGNFLFFGCR (UniProt Q9UHB4) | -0.272 |
| NCKAP5L_Q9HCH0_1076_NGLVGPLQGCGKPPGKPSSEPGRR (UniProt Q9HCH0) | 0.00289 |
| NEK9_Q8TD19_556_VLACGLNEFNK (UniProt Q8TD19) | -0.0386 |
| NFKB2_Q00653_250_GGDEVYLLCDK (UniProt Q00653) | 0.0572 |
| NIPBL_Q6KC79_1940_ILNITDVVAACR (UniProt Q6KC79) | 0.188 |
| NDUFV1_P49821_206_GAGAYICGEETALIESIEGK (UniProt P49821) | -0.0757 |
| NEK9_Q8TD19_657_VSCGDEFTIAATDDNHIFAWGNGGNGR (UniProt Q8TD19) | -0.113 |
| NELFB_Q8WX92_235_NVHYCTLR (UniProt Q8WX92) | 0.239 |
| NDUFB9_Q9Y6M9_103_VPEWCLDDWHPSEK (UniProt Q9Y6M9) | 0.101 |
| NKTR_P30414_41_NFLCLCSGEK (UniProt P30414) | -0.279 |
| NEK9_Q8TD19_288_AMEVDSSQYSLELIQMVHSCLDQDPEQRPTADELLDRPLLR (UniProt Q8TD19) | 0.231 |
| NKTR_P30414_9_GAQDRPQCHFDIEINREPVGR (UniProt P30414) | 0.85 |
| NELFA_Q9H3P2_44_LCFHGLSSAVK (UniProt Q9H3P2) | 0.306 |

Single entries from the entries so far:
probe-labelled cysteine peptide fold change, NKTR_P30414_32_IMFQLFSDICPK (UniProt P30414) reads -0.0342
probe-labelled cysteine peptide fold change, NDOR1_Q9UHB4_486_VAQGQTGNFLFFGCR (UniProt Q9UHB4) reads -0.272
